Data from paper PMC12648443, “Modifications of NU-9, a potent protein aggregation inhibitor. Properties and activity in a cellular model of amyotrophic lateral sclerosis” (Bioorganic chemistry, 2025).

Columns and labels:
[1] = pig, PAMPA, pH 7.5
[2] = in vitro; conditions: pig, PAMPA, pH 7.5

In the case of Nc1nc2ccc(OC(F)(F)F)cc2s1 [Riluzole, riluzole, reference compound], the “Log Pe” value [1] is reported as −4.47 and the Papp [2] is reported as 33.7 ± 0.96 ×10⁻⁶ cm/s.
